Results reported in doi:10.1101/790667 (bioRxiv, 2019).

The chains behind the UniProt entries cited, without tags or fusion partners. Where a name states a change or a piece, a line headed by the entry shows the natural chain unless it says otherwise.
UniProt Q13009: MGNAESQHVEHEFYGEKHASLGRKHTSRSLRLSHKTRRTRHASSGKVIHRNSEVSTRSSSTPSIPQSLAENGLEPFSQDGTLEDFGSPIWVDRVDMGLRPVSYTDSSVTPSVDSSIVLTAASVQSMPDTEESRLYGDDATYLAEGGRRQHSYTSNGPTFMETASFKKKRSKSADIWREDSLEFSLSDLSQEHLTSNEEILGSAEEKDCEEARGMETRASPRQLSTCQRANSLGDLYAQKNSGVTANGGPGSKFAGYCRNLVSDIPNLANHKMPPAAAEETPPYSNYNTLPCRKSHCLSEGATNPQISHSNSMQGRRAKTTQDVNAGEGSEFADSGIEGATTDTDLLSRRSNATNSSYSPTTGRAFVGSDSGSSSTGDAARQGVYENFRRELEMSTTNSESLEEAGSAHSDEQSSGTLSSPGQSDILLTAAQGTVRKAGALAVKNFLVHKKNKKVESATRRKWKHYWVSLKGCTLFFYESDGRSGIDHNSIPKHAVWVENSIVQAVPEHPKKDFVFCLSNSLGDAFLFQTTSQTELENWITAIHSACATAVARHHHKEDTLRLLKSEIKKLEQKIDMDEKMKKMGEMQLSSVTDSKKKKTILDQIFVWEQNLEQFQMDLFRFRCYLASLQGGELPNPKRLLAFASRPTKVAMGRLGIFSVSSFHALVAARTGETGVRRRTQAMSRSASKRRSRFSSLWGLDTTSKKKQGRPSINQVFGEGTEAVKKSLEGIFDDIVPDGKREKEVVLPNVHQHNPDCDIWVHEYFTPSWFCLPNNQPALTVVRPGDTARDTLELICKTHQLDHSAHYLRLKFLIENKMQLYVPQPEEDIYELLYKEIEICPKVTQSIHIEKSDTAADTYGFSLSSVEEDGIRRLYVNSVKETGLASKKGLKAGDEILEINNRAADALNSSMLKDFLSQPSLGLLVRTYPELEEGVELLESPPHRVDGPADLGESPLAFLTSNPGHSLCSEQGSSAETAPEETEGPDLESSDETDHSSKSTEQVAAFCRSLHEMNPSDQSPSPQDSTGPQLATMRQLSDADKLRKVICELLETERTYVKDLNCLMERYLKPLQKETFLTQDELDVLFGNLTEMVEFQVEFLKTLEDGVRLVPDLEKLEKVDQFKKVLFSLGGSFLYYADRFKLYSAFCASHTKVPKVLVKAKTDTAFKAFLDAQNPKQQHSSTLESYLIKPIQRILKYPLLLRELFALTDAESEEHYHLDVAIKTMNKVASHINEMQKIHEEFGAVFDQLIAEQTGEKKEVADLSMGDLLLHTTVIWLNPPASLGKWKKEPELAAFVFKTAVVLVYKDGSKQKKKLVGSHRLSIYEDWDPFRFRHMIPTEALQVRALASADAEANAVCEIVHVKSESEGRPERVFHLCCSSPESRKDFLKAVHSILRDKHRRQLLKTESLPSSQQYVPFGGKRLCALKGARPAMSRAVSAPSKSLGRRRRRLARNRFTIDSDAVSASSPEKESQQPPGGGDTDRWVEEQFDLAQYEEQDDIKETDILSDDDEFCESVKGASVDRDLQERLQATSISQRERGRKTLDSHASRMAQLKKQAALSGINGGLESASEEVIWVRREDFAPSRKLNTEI

What was measured:
Experiment in all cases: differential scanning fluorimetry
[1] = target: T1, Caspr4 peptide (residues 1,301-1,308)
T1 sequence (peptide, dansylated at the N-terminus; free carboxyl at the C-terminus): ENQKEYFF

[2] = target: T2, Neurexin peptide (residues 1,470-1,477)
T2 sequence (peptide, dansylated at the N-terminus; free carboxyl at the C-terminus): NKDKEYYV

[3] = target: T3, Syndecan1 peptide (residues 303-310)
T3 sequence (peptide, dansylated at the N-terminus; free carboxyl at the C-terminus): TKQEEFYA

Measured: binding

Tiam1 PDZ domain (from UniProt Q13009) (domain or fragment)
binds: all assays above

These are yes or no findings as the source states them, for the method shown. Binding can be weak; no strength is given.
